Some of these results come from one statement about several compounds together.
How the values were obtained:
[1] = tested on: seeds of thale cress (Arabidopsis thaliana, Col-0); assay: Thale cress seed germination test; format: in vivo; conditions: 3 μM compound co-applied with 0.3 μM ABA
Method: Seeds of thale cress (Arabidopsis thaliana, Col-0) were immersed in 500 μL of an aqueous solution of 70% ethanol for 30 minutes, subsequently in 500 μL of a 100% ethanol solution for 1 minute, washed five times in 1 mL of distilled water, then immersed in distilled water and, in a dark place, vernalized at 4° C. for 3 days. A solution of the sample in methanol was put in a 1.5 mL-microtube, and methanol was removed therefrom under reduced pressure. An aqueous solution of 0.5% agar (containing ½ MS medium inorganic salts) at 70° C. was added thereto and stirred, and subsequently the obtained mixture was placed in a 96-well plate to prepare the medium containing the sample. All samples were prepared so as to have a concentration of 3 μM of the compound in Examples 1 to 9 and Comparative Example 1. Further, when ABA is applied, the ABA concentration was adjusted to 0.3 μM. 20 to 30 vernalized seeds of thale cress were planted in each well and cultured at 22° C. under continuous light to monitor the number of seeds germinated over time. The germination rate was calculated by the following formula (1). Note that those cultured in medium prepared using methanol in the same manner were used as controls. […] Germination rate (%)=Number of seeds germinated/Number of seeds planted×100 (1)
The same test was carried out as in Test Example 1 with the concentrations of the compound of Example 1 for treatment varying from 0.3 μM to 30 μM.
Similarly, the same test was carried out with the concentrations of the compound of Example 2 for treatment varying from 0.3 μM to 30 μM.
The same test was carried out as in Test Example 2 with the concentrations of the compounds for treatment varying from 0.3 μM to 3 μM to compare the recovery effects on seed germination rate of the compound of Example 1 and the compound of Comparative Example 1.

[2] = biological target: T1, PYR1 (Arabidopsis thaliana, UniProt O49686); assay: Protein dephosphorylation enzyme activity test, PYR1; format: biochemical, thale cress; conditions: HAB1 activity test with PYL receptors, ABA + compound
T1 construct: 6xHis (N); made in house; host or cells: Escherichia coli BL21-codonplus(DE3)-RIPL (PYL); BL21(DE3)pLysS (HAB1)
T1 sequence (O49686 1-191): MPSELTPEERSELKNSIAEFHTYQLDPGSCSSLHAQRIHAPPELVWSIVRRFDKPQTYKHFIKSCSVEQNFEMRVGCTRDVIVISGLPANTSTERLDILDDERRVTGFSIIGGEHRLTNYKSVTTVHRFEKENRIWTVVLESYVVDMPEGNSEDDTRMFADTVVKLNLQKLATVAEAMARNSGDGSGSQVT
Method: A plasmid (pGex-2T-GST-HAB1 or pET28-6×His-PYL) encoded with PYR/PYL/RCAR proteins (PYL, abscisic acid receptor) or protein dephosphorylation enzyme HAB1 of thale cress was transformed to Escherichia coli (HAB1:BL21(DE3)pLysS, PYL:BL21-codonplus(DE3)-RIPL). Isopropyl-β-thiogalactopyranoside was added to the culture broth, which had been subjected to pre-culture (30° C., 180 rpm, 15 hours) and main culture (30° C., 180 rpm, 4 hours), and the protein-expressed (16° C., 150 rpm, 18 hours) crude enzyme solution was purified using FPLC thereby preparing the recombined PYL (PYR1, PYL1-6, PYL8-10) and HAB1. β-Mercaptoethanol, a manganese chloride aqueous solution, HAB1, PYL, a solution of the sample in dimethylsulfoxide and ultrapure water were sequentially added to a 96-well plate, allowed to stand at 22° C. for 30 minutes. Subsequently p-nitrophenylphosphate, which is the artificial substrate of HAB1, was added thereto to start the reaction, and the plate was placed in a microplate reader (TECAN, Infinite™ N200 NanoQuant). The absorbance at 405 nm due to p-nitrophenol, which is the hydrolysate of p-nitrophenylphosphate, was measured 3 minutes later from the reaction initiation, and HAB1 activity was calculated by the following formula (2). Note that the fraction to which only dimethylsulfoxide was added was considered to be the control and the activity thereof was defined as 100%. […] HAB1 specific activity (%)=Absorbance when sample was added/Absorbance of control×100 (2)

| Structure (SMILES) | Recovery of seed germination rate decreased by ABA [1] | Action on the ABA receptor [2] |
| --- | --- | --- |
| C#CCO[C@@H]1C=C(C)[C@](O)(/C=C/C(C)=C\C(=O)O)C(C)(C)C1 [Example 3, (2Z,4E)-5-((1S,4S)-1-hydroxy-2,6,6-trimethyl-4-(prop-2-yn-1-yloxy)cyclohex-2-en-1-yl)-3-methylpenta-2,4-dienoic acid] | seed germination rates decreased by ABA are recovered |  |
| CC1=C[C@@H](OCC#Cc2ccccc2)CC(C)(C)[C@@]1(O)/C=C/C(C)=C\C(=O)O [Example 1, (2Z,4E)-5-((1S,4S)-1-hydroxy-2,6,6-trimethyl-4-((3-phenylprop-2-yn-1-yl)oxy)cyclohex-2-en-1-yl)-3-methylpenta-2,4-dienoic acid] | seed germination rates decreased by ABA are recovered | act as the antagonist against the ABA receptor |
| CC1=C[C@@H](OCC#Cc2ccc(S(F)(F)(F)(F)F)cc2)CC(C)(C)[C@@]1(O)/C=C/C(C)=C\C(=O)O [Example 8] | seed germination rates decreased by ABA are recovered | act as the antagonist against the ABA receptor |
| CC1=C[C@@H](OCC#Cc2ccc(C)cc2)CC(C)(C)[C@@]1(O)/C=C/C(C)=C\C(=O)O [Example 7] | seed germination rates decreased by ABA are recovered | act as the antagonist against the ABA receptor |
| CC1=C[C@@H](OCC#Cc2cccc3ccccc23)CC(C)(C)[C@@]1(O)/C=C/C(C)=C\C(=O)O [Example 2] | seed germination rates decreased by ABA are recovered |  |
| CC(=O)c1ccc(C#CCO[C@@H]2C=C(C)[C@](O)(/C=C/C(C)=C\C(=O)O)C(C)(C)C2)cc1 [Example 6, (2Z,4E)-5-((1S,4S)-1-hydroxy-2,6,6-trimethyl-4-((3-(4-acetyl)phenylprop-2-yn-1-yl)oxy)cyclohex-2-en-1-yl)-3-methylpenta-2,4-dienoic acid] | seed germination rates decreased by ABA are recovered | act as the antagonist against the ABA receptor |
| CC1=C[C@@H](OCCCc2ccccc2)CC(C)(C)[C@@]1(O)/C=C/C(C)=C\C(=O)O [Example 9] | seed germination rates decreased by ABA are recovered | act as the antagonist against the ABA receptor |
| COc1ccc(C#CCO[C@@H]2C=C(C)[C@](O)(/C=C/C(C)=C\C(=O)O)C(C)(C)C2)cc1 [Example 5, (2Z,4E)-5-((1S,4S)-1-hydroxy-2,6,6-trimethyl-4-((3-(4-methoxy)phenylprop-2-yn-1-yl)oxy)cyclohex-2-en-1-yl)-3-methylpenta-2,4-dienoic acid] | seed germination rates decreased by ABA are recovered | act as the antagonist against the ABA receptor |
| CC1=C[C@@H](OCC#Cc2ccc(C(F)(F)F)cc2)CC(C)(C)[C@@]1(O)/C=C/C(C)=C\C(=O)O [Example 4, (2Z,4E)-5-((1S,4S)-1-hydroxy-2,6,6-trimethyl-4-((3-(4-trifluoromethyl)phenylprop-2-yn-1-yl)oxy)cyclohex-2-en-1-yl)-3-methylpenta-2,4-dienoic acid] | seed germination rates decreased by ABA are recovered | act as the antagonist against the ABA receptor |
